The test system of this assay is B6C3F1 mice, B16 melanoma ip, median survival T/C. As to the kind of experiment: NCI In Vivo Anticancer Drug Screen. Data for tumor model B16 Melanoma (intraperitoneal) in B6C3F1 mice. Conditions: T/C endpoint: median survival time, higher T/C = longer survival. The method, boiled down:
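Transplantable tumor in mice; treated vs vehicle control groups; survival or tumor size measured; value = T/C ratio.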

Where [1] appears, read: dose: 50.0 mg/kg/injection, schedule: Q01DX009 (ip), vehicle: water.
The mark [2] stands for this setting: dose: 100.0 mg/kg/injection, schedule: Q01DX009 (ip), vehicle: saline with Tween-80.
Where [3] appears, read: dose: 200.0 mg/kg/injection, schedule: Q01DX009 (ip), vehicle: saline with Tween-80.
[4] abbreviates: dose: 400.0 mg/kg/injection, schedule: Q01DX009 (ip), vehicle: saline with Tween-80.
Where [5] appears, read: dose: 12.5 mg/kg/injection, schedule: Q01DX009 (ip), vehicle: saline with Tween-80.
Where [6] appears, read: dose: 25.0 mg/kg/injection, schedule: Q01DX009 (ip), vehicle: saline with Tween-80.
Where [7] appears, read: dose: 50.0 mg/kg/injection, schedule: Q01DX009 (ip), vehicle: saline with Tween-80.

The list is a part of this screen's results and no random one: it gathers tests that were run many times, whatever their T/C, doses with no T/C, and many T/C values between a quarter and a half above the control. Other doses and runs of a compound stand elsewhere. T/C is the treated group as % of the vehicle group. Some doses have a count of surviving animals in place of a T/C: the source holds a T/C of zero for them, seemingly a mark for toxic or unscored doses. Some doses without a T/C left all or most animals alive at the check, yet need not have been tolerated: survival well below the control is almost never listed, so the zero probably covers shortened survival too. Counts of survivors are from the toxicity check (mostly the fifth day) where no day follows; animals may have died later. Schedules are NCI's codes, taken here to give the interval after Q, in days (D) or hours (H), and the number of doses after X. Some doses were run more than once; the values are given in rising order. Where survival is the endpoint, this PubChem deposit counts one and a half times the control or more as active, and values a quarter to a half above the control carry no call in these data; other NCI protocols may use other cut-offs. Some T/C values are followed by the survivors on the day toxicity was checked, most often the fifth; without a count, all were alive then.

Consider `O=C(O)Cc1cccc2c(=O)cc(-c3ccccc3)oc12`, for which the T/C (dose: 50.0 mg/kg/injection, schedule: Q01DX009 (ip), vehicle: suspension in saline) was 135 % of control. For the same compound, for the setting “dose: 200.0 mg/kg/injection, schedule: Q01DX009 (ip), vehicle: suspension in saline”, the survivor count was 5 of 10 and 9 of 10.

`O=NNc1ncc(Br)cc1Br`: the T/C under setting [1] was 144 % of control.

Turning to `Nc1n[n+](-c2ccc(Cl)cc2)no1`, the survivor count reads like this: under setting [1], 9 of 10; (dose: 100.0 mg/kg/injection, schedule: Q01DX009 (ip), vehicle: water) 0 of 10.

Regarding `Nc1nc(-c2cccc([N+](=O)[O-])c2)c(Br)c(=O)[nH]1`, the survivor count was 10 of 10 under setting [2] and 9 of 10 under setting [3].

For the compound `CO[C@@]12[C@@H]3N[C@@H]3CN1C1=C(C(=O)C(NCC3CCCO3)=C(C)C1=O)[C@@H]2COC(N)=O` (some centres undefined), the T/C (dose: 1.5 mg/kg/injection, schedule: Q04DX003 (ip), vehicle: distilled water + Tween-80) is 146 % of control. Moreover, the survivor count (dose: 48.0 mg/kg/injection, schedule: Q04DX003 (ip), vehicle: distilled water + Tween-80) was 8 of 10.

`COC1/C=C\C=C(/C)C(=O)NC2=CC(=O)C(N)=C(CC(C)CC(OC)C(O)C(C)C=C(C)C1OC(N)=O)C2=O` (centres undefined): the T/C (dose: 6.0 mg/kg/injection, schedule: Q01DX009 (ip), vehicle: saline with Tween-80) is 125 % of control.

For `CC(=O)[C@]1(O)Cc2c(O)c3c(c(O)c2[C@@H](OC2CC(N)C(O)C(C)O2)C1)C(=O)c1c(O)cccc1C3=O` (some centres undefined), the T/C (dose: 0.75 mg/kg/injection, schedule: Q01DX001 (ip), vehicle: water) was 135 % of control. Moreover, the survivor count is 10 of 10 (dose: 1.5 mg/kg/injection, schedule: Q01DX001 (ip), vehicle: water); 7 of 10 (dose: 3.0 mg/kg/injection, schedule: Q01DX001 (ip), vehicle: water); 0 of 10 (dose: 6.0 mg/kg/injection, schedule: Q01DX001 (ip), vehicle: water).

On to `NC(=S)N/N=C\c1ncccc1OCc1cccc(N)c1`, for which the T/C by setting is: (dose: 100.0 mg/kg/injection, schedule: Q01DX009 (ip), vehicle: saline with Tween-80, evaluated on day 55) 125 % of control; (dose: 100.0 mg/kg/injection, schedule: Q01DX009 (ip), vehicle: saline with Tween-80, evaluated on day 60) 131 and 134 % of control; (dose: 200.0 mg/kg/injection, schedule: Q01DX009 (ip), vehicle: saline with Tween-80, evaluated on day 55) 132 % of control; (dose: 200.0 mg/kg/injection, schedule: Q01DX009 (ip), vehicle: saline with Tween-80, evaluated on day 60) 127 and 139 % of control [9 of 10 alive]; under setting [4], 132 % of control.

With `Clc1ccc(CN2COc3c(ccc4cccnc34)C2)cc1Cl`, the survivor count was 10 of 10 under setting [2], 7 of 10 under setting [3] and 8 of 10 under setting [4].

In the case of `CC1=CCC[C@@H]2C1(C)CCC(C)[C@@]2(C)CC1=CC(=O)C=CC1=O` (some centres undefined), the survivor count was 10 of 10 (dose: 2.5 mg/kg/injection, schedule: Q01DX009 (ip), vehicle: Klucel (hydroxypropylcellulose) (HPC)); 10 of 10 (dose: 5.0 mg/kg/injection, schedule: Q01DX009 (ip), vehicle: Klucel (hydroxypropylcellulose) (HPC)); 10 of 10 (dose: 10.0 mg/kg/injection, schedule: Q01DX009 (ip), vehicle: Klucel (hydroxypropylcellulose) (HPC)).

On to `CO[C@@]12[C@@H]3N[C@@H]3CN1C1=C(C(=O)C(N3CCCC3)=C(C)C1=O)[C@@H]2COC(N)=O`, for which the survivor count is 10 of 10 under setting [5], 5 of 10 under setting [6] and 2 of 10 under setting [7].

As to `CC(C)C(NC(=O)OC(C)(C)C)C(=O)ON1C(=O)CCC1=O` (centres undefined), the survivor count under setting [3] is recorded as 10 of 10.

As for `CC(C)CC(NC(=O)CCl)C(=O)O` (centres undefined), the survivor count under setting [7] is reported as 10 of 10, the survivor count under setting [2] was 10 of 10, the survivor count under setting [3] is listed as 10 of 10 and the survivor count under setting [4] is 5 of 10.

In the case of `CC(C)(C)OC(=O)NC(CCCCNC(=O)C(F)(F)F)C(=O)ON1C(=O)CCC1=O` (centres undefined), the survivor count reads like this: under setting [2], 10 of 10; under setting [3], 10 of 10.

For the compound `O=C(NO)c1ccc(O)c(O)c1`, the T/C is, setting by setting: (dose: 200.0 mg/kg/injection, schedule: Q01DX009 (ip), vehicle: water) 125 % of control; (dose: 240.0 mg/kg/injection, schedule: Q01DX009 (ip), vehicle: water) 136 % of control; (dose: 264.0 mg/kg/injection, schedule: Q01DX009 (ip), vehicle: other) 129 % of control; (dose: 400.0 mg/kg/injection, schedule: Q01DX009 (ip), vehicle: other) 141 % of control; (dose: 400.0 mg/kg/injection, schedule: Q01DX009 (ip), vehicle: water) 102 [8 of 10 alive], 112, 117, 125 % of control; (dose: 480.0 mg/kg/injection, schedule: Q01DX009 (ip), vehicle: water) 136 % of control. In addition, the survivor count (dose: 264.0 mg/kg/injection, schedule: Q01DX009 (ip), vehicle: water) is recorded as 10 of 10; the survivor count (dose: 600.0 mg/kg/injection, schedule: Q01DX009 (ip), vehicle: water) was 4 of 10; the survivor count (dose: 720.0 mg/kg/injection, schedule: Q01DX009 (ip), vehicle: water) is 7 of 10; the survivor count (dose: 800.0 mg/kg/injection, schedule: Q01DX009 (ip), vehicle: water) was 0 of 10 and 2 of 10.

In the case of `COc1ccc(CC2C(=O)NC(C)C(=O)N(C)C3C(=O)N(C)C(Cc4ccc(O)c(c4)Oc4ccc(cc4)C3O)C(=O)NC(C)C(=O)NC(C)C(=O)N2C)cc1` (centres undefined), the T/C reads like this: (dose: 0.25 mg/kg/injection, schedule: Q01DX009 (ip), vehicle: saline with Tween-80) 141 % of control; (dose: 0.5 mg/kg/injection, schedule: Q01DX005 (ip), vehicle: saline with Tween-80) 131 % of control; (dose: 1.0 mg/kg/injection, schedule: Q01DX005 (ip), vehicle: saline with Tween-80) 129 % of control; (dose: 1.0 mg/kg/injection, schedule: Q01DX009 (ip), vehicle: saline with Tween-80) 147 % of control; (dose: 2.0 mg/kg/injection, schedule: Q01DX005 (ip), vehicle: saline with Tween-80) 129 % of control; (dose: 4.0 mg/kg/injection, schedule: Q01DX009 (ip), vehicle: saline with Tween-80) 133 % of control. Besides, the survivor count is, setting by setting: (dose: 4.0 mg/kg/injection, schedule: Q01DX005 (ip), vehicle: saline with Tween-80) 3 of 10; (dose: 4.0 mg/kg/injection, schedule: Q01DX005 (iv), vehicle: saline with Tween-80) 2 of 10 and 6 of 10.

Regarding `C=C1N(C)c2ccccc2C1(C)C`, the survivor count runs as follows: under setting [5], 9 of 10; under setting [6], 4 of 10 and 6 of 10; under setting [7], 2 of 10 and 9 of 10; under setting [2], 0 of 10 and 4 of 10; under setting [3], 0 of 10; under setting [4], 0 of 10.

Take `NNC(=O)c1ccncc1`: the T/C is 130 % of control (dose: 8.0 mg/kg/injection, schedule: Q01DX009 (ip), vehicle: saline); 145 % of control (dose: 16.0 mg/kg/injection, schedule: Q01DX009 (ip), vehicle: saline); 128 % of control (dose: 32.0 mg/kg/injection, schedule: Q01DX009 (ip), vehicle: saline). Moreover, the survivor count is, setting by setting: (dose: 200.0 mg/kg/injection, schedule: Q01DX009 (ip), vehicle: saline) 3 of 10; (dose: 400.0 mg/kg/injection, schedule: Q01DX009 (ip), vehicle: saline) 0 of 10.

For the origin of these results see PubChem BioAssay AID200 (DTP/NCI, 2004).
